Assay [1] addresses T1, GTP:adenosylcobinamide-phosphate guanylyl transferase (CobY) from Methanocaldococcus jannaschii (Methanocaldococcus jannaschii), Q58517.
T1 chain: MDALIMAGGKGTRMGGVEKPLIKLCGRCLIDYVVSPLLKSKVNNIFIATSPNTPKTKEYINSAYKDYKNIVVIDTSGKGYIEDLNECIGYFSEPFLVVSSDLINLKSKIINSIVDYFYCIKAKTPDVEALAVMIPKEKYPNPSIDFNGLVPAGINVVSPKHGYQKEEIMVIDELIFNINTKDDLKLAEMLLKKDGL
Nature of the assay: NMR (experiment not told); GTP-bound CobY in solution; told only in the conclusions; both purified. The conditions noted are these: remark: other sources report otherwise.

Assay [2] concerns the target T1, GTP:adenosylcobinamide-phosphate …. Briefly: NMR 15N relaxation (T1, T2, rotational correlation time); apo-CobY, 2.0 mM [U-13C,15N] protein in 50 mM Tris, 5 mM DTT, 50 mM NaCl, 10 mM MgCl2, 95% H2O, 5% D2O; 40°C; both purified. The conditions noted are these: remark: other sources report otherwise.

These are yes or no findings as the source states them, for the method shown.

B1: GTP:adenosylcobinamide-phosphate guanylyl transferase (CobY) from Methanocaldococcus jannaschii, Q58517 1-196 (enzyme)
chain: T1 chain
In the case of B1, the values for the binding result in assay [1] and in assay [2] were “no binding” and “no binding (tested: 2.0 mM)”, respectively.

The values above are taken from article PMC4626045.
